Test results from the supplement of paper PMC6078165.
Values are relative to the signal before dosing, not to a vehicle control; the signal also falls without drug.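 Fibroblast labels denote human fibroblasts, mainly primary ones from uterus (C12385, HUF), lung (H6013), bone (Hs27A), adrenal (HADF) and skin (WS1), plus mammary HMF and breast cancer-associated Hs343T. Cancer cells are basal-like or mesenchymal-like triple-negative breast cancer lines. A hit is a response shift exceeding 3x replicate standard deviation. The tissue of the other fibroblasts is not given here.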

Tested on: MDAMB231
Test: relative JC-1 red fluorescence (viability) vs pre-drug, coculture with fibroblast (fraction); higher = more viable cancer cells
Settings: 0.1 µM
Experimental: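 JC-1 labelled TNBC cells cocultured 1:1 (1,500 cells each) with CellTrace Violet stained primary or stromal fibroblasts in 384-well plates in FluoroBrite medium, treated with one of 42 anticancer drugs at 0.1, 1, 10 or 100 uM. JC-1 red fluorescence (mitochondrial integrity in cancer cells only) was read by plate reader every 8 h for 72 h. Values are normalised to each well's pre-drug value. The stock of one drug was tenfold lower, so its dose labels may be too high.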

CCCCCOC(=O)Nc1nc(=O)n([C@@H]2O[C@H](C)[C@@H](O)[C@H]2O)cc1F [Capecitabine]
relative JC-1 red fluorescence
Settings | 8 h | 16 h | 24 h | 32 h | 40 h
coculture fibroblast: C12385 | 0.7701 | 0.7166 | 0.616 | 0.6169 | 0.552
coculture fibroblast: H6013 | 0.889 | 0.8431 | 0.795 | 0.781 | 0.733
coculture fibroblast: H6019 | 0.786 | 0.765 | 0.652 | 0.667 | 0.633
coculture fibroblast: H6076 | 0.904 | 0.819 | 0.783 | 0.744 | 0.711
coculture fibroblast: H6231 | 0.94 | 0.832 | 0.767 | 0.711 | 0.649
coculture fibroblast: HADF | 0.8887 | 0.8521 | 0.804 | 0.7644 | 0.728
coculture fibroblast: HCFa | 0.9016 | 0.8463 | 0.81 | 0.774 | 0.718
coculture fibroblast: HCPF | 0.884 | 0.7748 | 0.71 | 0.67 | 0.623
coculture fibroblast: HHSteC | 0.86495 | 0.811 | 0.749 | 0.691 | –
coculture fibroblast: HMF | 0.893 | 0.815 | 0.747 | 0.689 | –
coculture fibroblast: HPFa | 0.949 | 0.89 | 0.841 | 0.772 | –
coculture fibroblast: HUF | 0.849 | 0.691 | 0.697 | 0.572 | –
coculture fibroblast: Hs5 | 0.877 | 0.7936 | 0.721 | 0.6707 | –
coculture fibroblast: Hs27A | 0.8737 | 0.785 | 0.735 | 0.698 | –
coculture fibroblast: Hs343T | 0.881 | 0.744 | 0.669 | 0.616 | –
coculture fibroblast: WS1 | 0.721 | 0.643 | 0.596 | 0.518 | –
